{"source": "patent US20120108855A1", "about": "“INCREASED EXPRESSION OF TRANSHYDROGENASE GENES AND THEIR USE IN ETHANOL PRODUCTION” (UNIVERSITY OF FLORIDA RESEARCH FOUNDATION, INC., priority 2009, published 2012)", "test_system": "EMFR9", "assay": "5-HMF tolerance in tube cultures, EMFR9 carrying plasmids", "type": "cell-based, Escherichia coli", "conditions": "kanamycin 12.5 mg l^-1 for plasmid maintenance, all strains", "note": "At least one structure is not confirmed: it was looked up by name or label, or the drawing left a doubt.", "data": [{"compound": "NC[C@H]1O[C@H](O[C@H]2[C@H](O)[C@@H](O[C@H]3O[C@H](CO)[C@@H](O)[C@H](N)[C@H]3O)[C@H](N)C[C@@H]2N)[C@H](O)[C@@H](O)[C@@H]1O", "note": "[kanamycin]", "values": [{"measurement": "effect on 5-HMF tolerance", "result": "decreased"}]}]}
